Literature values in patent publication US20240255506A1, “PAIRED-CELL PROFILING SYSTEMS FOR HIGH-THROUGHPUT SCREENING SYNCYTIUM FORMATION” (priority 2023, published 2024).
At least one structure is not confirmed: it was looked up by name or label, or the drawing left a doubt.

Test system: SARS-COV-2-induced syncytium formation in Vero E6 cells
Details: drug screen with more than 3,000 approved drugs (ref. 19); cited from earlier work

CCC(C)n1ncn(-c2ccc(N3CCN(c4ccc(OCC5COC(Cn6cncn6)(c6ccc(Cl)cc6Cl)O5)cc4)CC3)cc2)c1=O (stereo not shown) [itraconazole]
SARS-COV-2-induced syncytium formation: some inhibitory effects
